Data published in PubChem BioAssay AID1347423 (Functional Genomics Laboratory (NCATS/FGL), 2020).
About 210 (0.4%) of roughly 52,000 sequences were called active.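 The calls were made as follows: active = gene whose silencing raises cell survival under the drug, median off-target-corrected z-score across its silencing RNAs 2 or more; inactive = the rest.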 The list shows a part of the results.

Assay: Resistance to Poly (ADP-Ribose) Polymerase inhibitor: Gene Identification via Genome-wide siRNA Screen
Details: mouse BRCA2 R2336H ES cells, olaparib, CellTiter-Glo viability; stronger effect = higher value
How it was run: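 Genome-wide siRNA screen (3 siRNAs/gene, 20 nM) in mouse ES cells carrying hypomorphic BRCA2 R2336H; olaparib 500 nM added 48 h post-transfection, CellTiter-Glo viability 72 h later. Normalized to plate-median negative control; MAD z-scores, gene median, seed-adjusted.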

Sequence	z-score
CCUUGUAGCUCUUUAUAAATT against Strn	inactive: 2.21
GGCAGCAAGACAACUUUUGTT against Foxp2	inactive: 0.451
GGAUUUGGGACUAAUUACGTT against Hsd17b7	inactive: -1.58
GGACAGCUGGCUUCUAAAUTT against 4933403M22Rik	inactive: 0.822
CGUGUCUGUUCUCGUUCUGTT against 0610043B10Rik	inactive: 0.338
CCUUAUUUCGAGCUGUGAATT against 1810030N24Rik	inactive: -0.583
GCCUUACUCUCUCAGUCCUTT against D930018N13	inactive: -1.82
GGGUUUCUUGUUUCUUAGATT against Aldh6a1	inactive: -0.568
GGCUAAAAUCCAUGACAUUTT against Hspa1l	inactive: 1.02
GGAUUCUAUGACAAAGACATT against Ddx3x	inactive: -2.15
GGAAUACCAGGAAAAUAGUTT against Chm	inactive: 0.127
GGUGGAAAGUAUCGUUGACTT against Cdyl	inactive: -0.352
GGUGGUUUAAAAAACUGCUTT against Faah	inactive: -0.97
GGUUCUACUUCAGCUGCCUTT against Asah3	inactive: -0.442
GGGAAACUCGAGAUGUGCATT against Ankmy2	inactive: 1.2
GGUCCUACUGAAAACGCAUTT against 6330442E10Rik	inactive: 0.452
GACAAAUAGUGCAGGAGGATT against 2310069N01Rik	inactive: 0.444
GCGAGCUCGAUUGAAAACUTT against Dlgh3	inactive: 1.23
GGACAUGUGGAAAUGGAUATT against Arhgap4	inactive: 0.234
GCCAAUAGCUCCAGCUUGATT against Olfr668	inactive: -0.256
CCGAAGCCUUGAAAGCAGUTT against 2810403P18Rik	inactive: 1.33
GGAGUGUUUAAAAGAGAAGTT against Mns1	inactive: -0.443
CCAGAAUUUGUGAAAUCCGTT against Dner	inactive: 1.76
GGUGUUGGAGCAGCUCACATT against Rpl11	inactive: -1.55
GCCCAUGAAUUUUUACUUATT against C330019G07Rik	inactive: 0.714
GGACACCUGAAGUUAGUUUTT against Ndufaf1	inactive: 0.752
GGAAUCAUUAAAACUCUCCTT against Ccr3	inactive: -0.071
CCGUUGGAGGUAAUUAGGATT against Dot1l	inactive: 1.03
GGAGUCCACUAAAGUCCUATT against Fmnl3	inactive: -0.887

Quoted at random: two records from the list.
Sequence	z-score
GGUGGAAAGUAUCGUUGACTT against Cdyl	inactive: -0.352
CCGAAGCCUUGAAAGCAGUTT against 2810403P18Rik	inactive: 1.33
